Results on 1 compound are retold here after article PMC7562719, “Discovery of a CNS penetrant small molecule SMN2 splicing modulator with improved tolerability for spinal muscular atrophy” (Scientific Reports, 2020).

The series has as its system TK6 cells. As to conditions: positive control 0.01 µg/mL (0.03 µM), 24 h -S9 mix. How it is done:
These articles have been recommended for use in the OECD test guideline (Test No. 487)[49]. For metabolic activation, pre-cultured TK6 cells with the culture medium were supplemented with Sprague–Dawley rat liver mix (S9 mix, IEDA TRADING CORPORATION, Japan) at 3.33 vol%. Then, compound was mixed with the cell suspension and treated under the following treatment conditions: • Short-term treatment for 3 h without S9 mix, followed by a 21-h culture (−S9 mix assay), • Short-term treatment for 3 h with S9 mix, followed by a 21-h culture (+S9 mix assay), or • Continuous treatment for 24 h without S9 mix (24-h assay). For treatment conditions 1 and 2, the cells in each well were centrifuged after the 3-h treatment, the supernatants were discarded, and the cells were washed twice with culture medium. The cells were further cultured with fresh culture medium for 21 h. The compound-treated cells were examined by the unaided eye for precipitation of compound at the start and end of treatment. After treatment, the rest of each cell suspension was centrifuged and then the cells were suspended in a 0.075 mol/L KCl solution at room temperature for 10 min. Then, 25 vol% acetic acid containing methanol was added and the centrifuged cells were fixed. The fixed cells were resuspended in a small amount of 3 vol% acetic acid containing methanol, which was changed two times by centrifugation. Finally, a drop of the cell suspension was transferred onto a slide and dried at room temperature. The slides were stained at room temperature in a 3 vol% Giemsa solution (Merck KGaA) diluted with Sörensen phosphate buffer (1/15 mol/L, pH 6.8, Muto Pure Chemicals Co. Ltd.). Four slides per dose (2 slides per well) were prepared. Each slide was coded randomly. […] To perform scoring for compound and negative control groups, the number of cells in the suspensions was counted using a Coulter Counter (Z2; Beckman Coulter, Inc.). The positive control groups were not determined. […] The cell number per 1 mL at each culture was calculated by the following formula. […]
The population doubling (PD) and relative population doubling (RPD) at each concentration was calculated by the following formula. […]
RPD%=PD of the compound-treated group/PD of the negative control group×100 For the treated groups, the 3 consecutive concentrations were selected as follows. […] For all concentrations, 4000 mononuclear cells with cytoplasm were analyzed and the number of cells with micronucleus (micronuclei) was counted using a microscope (× 600). […] Each investigator scored 1000 cells for the frequency of micronucleated cells. […] A cell having one or more micronuclei was recorded as a micronucleated cell.

Marks after values point to notes of the source that are not given here.

For `CN[C@H]1CCc2cc(OC)c(OC)c(OC)c2-c2ccc(OC)c(=O)cc21` [COL, colcemid, reference compound], the “Micronucleated cells Well 1” value came out at 45 and the “Micronucleated cells Well 2” value stood at 51. Moreover, the “Micronucleated cells Total” value (counted in 4000 cells) was 96. Moreover, the “Micronucleated cells (%)” value (p < 0.01) is given as “(2.4) ** %”.
